Our source for the binding values is PMC5256034.

By UniProt entry, the sequences of proteins in these tests, tags left out.
UniProt P78396: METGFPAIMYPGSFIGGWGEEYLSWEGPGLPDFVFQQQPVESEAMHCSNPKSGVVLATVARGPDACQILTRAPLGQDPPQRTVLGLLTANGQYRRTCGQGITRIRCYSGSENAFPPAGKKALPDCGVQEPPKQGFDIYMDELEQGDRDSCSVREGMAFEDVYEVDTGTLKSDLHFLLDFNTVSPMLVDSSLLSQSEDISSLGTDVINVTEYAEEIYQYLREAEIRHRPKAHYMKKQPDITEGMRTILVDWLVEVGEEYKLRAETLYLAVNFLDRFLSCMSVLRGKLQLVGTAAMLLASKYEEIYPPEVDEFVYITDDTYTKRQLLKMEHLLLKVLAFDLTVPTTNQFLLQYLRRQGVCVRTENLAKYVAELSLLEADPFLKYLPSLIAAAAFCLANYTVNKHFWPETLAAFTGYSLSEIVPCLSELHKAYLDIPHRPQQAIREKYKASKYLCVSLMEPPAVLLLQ

These are yes or no findings as the source states them, for the method shown. Binding seen in cells or lysates may run through a third protein. Some results given as binding are weak or reduced against the parent protein; the word gives no strength. For part of these data: Tags and fused reporters may be left off the sequences shown.

Common to all, as to assay: co-IP; HEK293 cells transfected with epitope-tagged proteins; lysis in 150 mM NaCl, 50 mM Tris pH 7.5, 1% Triton X-100; immobilized anti-Myc antibody, 4 °C overnight; western blot
Test [1] has as its target Myc-tagged human cyclin A1 (CCNA1) (human) (UniProt P78396).
For test [2], the target named is T1, Myc-tagged human cyclin I (CCNI) (human) (UniProt Q14094).
T1 sequence: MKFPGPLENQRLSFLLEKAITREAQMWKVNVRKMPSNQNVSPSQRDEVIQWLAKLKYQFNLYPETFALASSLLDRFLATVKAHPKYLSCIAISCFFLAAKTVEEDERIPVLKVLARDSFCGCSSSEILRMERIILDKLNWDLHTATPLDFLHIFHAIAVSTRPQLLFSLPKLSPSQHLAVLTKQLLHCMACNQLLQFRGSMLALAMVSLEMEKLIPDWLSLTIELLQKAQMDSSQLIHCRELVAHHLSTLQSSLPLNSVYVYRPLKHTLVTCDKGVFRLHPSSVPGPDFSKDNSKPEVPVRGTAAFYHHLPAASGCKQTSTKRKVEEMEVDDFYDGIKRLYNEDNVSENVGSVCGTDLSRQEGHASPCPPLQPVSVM

Test [3] deals with T2, Myc-tagged human cyclin I-like (CCNI2) (human) (UniProt Q6ZMN8).
T2 sequence: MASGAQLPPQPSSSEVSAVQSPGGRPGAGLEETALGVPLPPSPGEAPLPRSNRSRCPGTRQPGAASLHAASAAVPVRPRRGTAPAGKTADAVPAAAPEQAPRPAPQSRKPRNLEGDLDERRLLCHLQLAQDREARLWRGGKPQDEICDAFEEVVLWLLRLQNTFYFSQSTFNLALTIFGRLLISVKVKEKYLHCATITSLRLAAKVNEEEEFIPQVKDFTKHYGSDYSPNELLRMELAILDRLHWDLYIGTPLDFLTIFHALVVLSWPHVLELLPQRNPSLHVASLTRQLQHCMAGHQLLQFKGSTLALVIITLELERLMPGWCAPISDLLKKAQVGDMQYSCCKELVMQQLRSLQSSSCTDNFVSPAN

Take “Flag-tagged human CDK5 (from UniProt Q00535 1-292) (enzyme)”: the binding entry is “no binding” in test [1], “binds” in test [2] and “binds” in test [3].
